Experimental data from PMC6300608.

Protein sequences, listed by entry. Tags and fused reporters are not part of them. Lines headed by an entry give the natural chain unless they say otherwise; changes in a name come on top.
UniProt P06396: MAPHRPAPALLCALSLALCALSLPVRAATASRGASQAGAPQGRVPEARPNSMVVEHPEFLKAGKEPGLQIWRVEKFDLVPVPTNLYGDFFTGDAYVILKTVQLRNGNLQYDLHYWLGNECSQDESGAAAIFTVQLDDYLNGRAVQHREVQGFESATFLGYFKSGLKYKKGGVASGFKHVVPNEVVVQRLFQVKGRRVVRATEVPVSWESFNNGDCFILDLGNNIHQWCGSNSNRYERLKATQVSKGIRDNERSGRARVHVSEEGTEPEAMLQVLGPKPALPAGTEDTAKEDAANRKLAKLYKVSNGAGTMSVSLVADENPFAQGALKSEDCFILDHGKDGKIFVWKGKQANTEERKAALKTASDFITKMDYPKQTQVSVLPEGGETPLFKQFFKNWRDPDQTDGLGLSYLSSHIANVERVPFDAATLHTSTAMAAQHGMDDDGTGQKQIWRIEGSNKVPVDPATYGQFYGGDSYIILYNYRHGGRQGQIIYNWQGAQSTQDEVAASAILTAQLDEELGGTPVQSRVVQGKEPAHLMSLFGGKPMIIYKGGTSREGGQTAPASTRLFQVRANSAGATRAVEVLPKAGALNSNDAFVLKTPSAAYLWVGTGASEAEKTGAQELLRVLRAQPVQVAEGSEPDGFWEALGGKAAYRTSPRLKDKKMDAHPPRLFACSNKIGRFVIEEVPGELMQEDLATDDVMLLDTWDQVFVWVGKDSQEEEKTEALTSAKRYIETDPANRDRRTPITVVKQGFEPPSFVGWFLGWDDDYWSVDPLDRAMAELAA
UniProt P42337: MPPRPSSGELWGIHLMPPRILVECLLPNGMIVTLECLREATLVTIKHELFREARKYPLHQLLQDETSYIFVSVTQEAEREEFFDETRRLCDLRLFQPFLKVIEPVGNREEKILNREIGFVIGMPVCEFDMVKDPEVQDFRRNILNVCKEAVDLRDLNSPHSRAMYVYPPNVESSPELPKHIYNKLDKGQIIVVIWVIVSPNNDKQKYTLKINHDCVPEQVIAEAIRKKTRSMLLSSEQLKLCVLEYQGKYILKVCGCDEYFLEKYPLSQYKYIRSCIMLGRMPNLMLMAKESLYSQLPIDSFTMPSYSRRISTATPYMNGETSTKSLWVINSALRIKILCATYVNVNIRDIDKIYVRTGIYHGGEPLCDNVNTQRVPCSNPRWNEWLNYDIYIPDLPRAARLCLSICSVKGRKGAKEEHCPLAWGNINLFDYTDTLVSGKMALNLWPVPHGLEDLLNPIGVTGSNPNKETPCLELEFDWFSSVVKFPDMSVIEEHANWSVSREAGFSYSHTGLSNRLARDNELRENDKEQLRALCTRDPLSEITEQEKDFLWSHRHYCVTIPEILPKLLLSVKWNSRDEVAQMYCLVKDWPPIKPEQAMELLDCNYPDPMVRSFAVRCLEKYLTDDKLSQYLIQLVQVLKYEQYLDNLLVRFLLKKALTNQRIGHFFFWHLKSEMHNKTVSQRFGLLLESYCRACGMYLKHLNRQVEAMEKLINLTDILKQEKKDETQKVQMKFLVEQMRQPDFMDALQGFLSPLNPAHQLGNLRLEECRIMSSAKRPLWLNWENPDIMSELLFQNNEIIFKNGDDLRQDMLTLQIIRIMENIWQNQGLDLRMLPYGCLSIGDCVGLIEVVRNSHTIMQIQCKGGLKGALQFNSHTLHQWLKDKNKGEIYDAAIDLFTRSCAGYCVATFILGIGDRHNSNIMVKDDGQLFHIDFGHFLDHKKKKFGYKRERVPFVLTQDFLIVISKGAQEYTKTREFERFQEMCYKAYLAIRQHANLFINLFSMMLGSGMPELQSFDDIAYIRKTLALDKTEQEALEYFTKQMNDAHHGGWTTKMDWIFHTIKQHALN
UniProt Q8BTI9: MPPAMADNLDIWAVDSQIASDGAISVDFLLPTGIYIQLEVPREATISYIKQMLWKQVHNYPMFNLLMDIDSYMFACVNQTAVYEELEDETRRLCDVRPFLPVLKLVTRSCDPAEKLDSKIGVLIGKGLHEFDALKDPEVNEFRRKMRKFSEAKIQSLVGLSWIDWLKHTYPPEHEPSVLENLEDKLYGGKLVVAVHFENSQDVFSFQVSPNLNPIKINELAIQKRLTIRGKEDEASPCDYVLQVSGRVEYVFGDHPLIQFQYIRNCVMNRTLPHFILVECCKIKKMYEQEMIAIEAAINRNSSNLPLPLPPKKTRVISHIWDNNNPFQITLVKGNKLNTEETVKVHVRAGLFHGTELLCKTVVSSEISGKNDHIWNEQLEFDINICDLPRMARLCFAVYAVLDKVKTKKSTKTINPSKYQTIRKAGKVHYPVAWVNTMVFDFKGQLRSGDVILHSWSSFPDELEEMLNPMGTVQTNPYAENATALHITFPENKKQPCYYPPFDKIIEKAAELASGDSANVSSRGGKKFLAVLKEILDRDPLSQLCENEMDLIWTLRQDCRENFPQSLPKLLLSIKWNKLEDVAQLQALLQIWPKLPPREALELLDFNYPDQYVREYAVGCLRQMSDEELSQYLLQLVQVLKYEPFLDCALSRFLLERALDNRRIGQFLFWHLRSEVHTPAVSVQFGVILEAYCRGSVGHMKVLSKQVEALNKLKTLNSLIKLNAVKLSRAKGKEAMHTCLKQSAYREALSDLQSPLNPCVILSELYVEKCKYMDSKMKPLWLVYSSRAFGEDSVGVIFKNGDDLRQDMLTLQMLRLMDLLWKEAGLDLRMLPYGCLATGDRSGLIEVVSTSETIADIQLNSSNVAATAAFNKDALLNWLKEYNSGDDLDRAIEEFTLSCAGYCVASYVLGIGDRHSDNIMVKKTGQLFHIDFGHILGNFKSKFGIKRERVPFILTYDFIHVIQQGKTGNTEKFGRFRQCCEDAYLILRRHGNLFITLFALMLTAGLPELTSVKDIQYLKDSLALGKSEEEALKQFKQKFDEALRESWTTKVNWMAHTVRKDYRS
UniProt P13020: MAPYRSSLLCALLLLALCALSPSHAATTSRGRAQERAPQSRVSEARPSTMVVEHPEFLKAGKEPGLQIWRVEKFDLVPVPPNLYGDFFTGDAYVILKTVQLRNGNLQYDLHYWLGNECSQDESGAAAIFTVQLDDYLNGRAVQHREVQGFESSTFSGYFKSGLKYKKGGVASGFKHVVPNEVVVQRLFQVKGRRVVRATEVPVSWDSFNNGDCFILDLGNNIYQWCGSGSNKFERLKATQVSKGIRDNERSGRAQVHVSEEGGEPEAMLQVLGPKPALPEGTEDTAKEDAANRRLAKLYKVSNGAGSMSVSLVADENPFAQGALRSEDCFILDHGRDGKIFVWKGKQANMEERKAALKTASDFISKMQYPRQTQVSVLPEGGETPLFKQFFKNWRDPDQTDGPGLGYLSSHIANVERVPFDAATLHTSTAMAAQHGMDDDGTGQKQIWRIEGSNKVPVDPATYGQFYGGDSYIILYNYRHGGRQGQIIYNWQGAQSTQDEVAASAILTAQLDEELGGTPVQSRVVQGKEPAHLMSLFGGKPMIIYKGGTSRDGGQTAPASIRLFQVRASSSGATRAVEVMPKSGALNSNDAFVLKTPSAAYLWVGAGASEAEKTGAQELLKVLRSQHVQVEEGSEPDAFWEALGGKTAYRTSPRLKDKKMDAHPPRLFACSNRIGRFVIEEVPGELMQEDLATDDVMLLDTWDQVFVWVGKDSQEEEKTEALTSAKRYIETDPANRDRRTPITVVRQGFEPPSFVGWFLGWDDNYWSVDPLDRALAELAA
UniProt P42336: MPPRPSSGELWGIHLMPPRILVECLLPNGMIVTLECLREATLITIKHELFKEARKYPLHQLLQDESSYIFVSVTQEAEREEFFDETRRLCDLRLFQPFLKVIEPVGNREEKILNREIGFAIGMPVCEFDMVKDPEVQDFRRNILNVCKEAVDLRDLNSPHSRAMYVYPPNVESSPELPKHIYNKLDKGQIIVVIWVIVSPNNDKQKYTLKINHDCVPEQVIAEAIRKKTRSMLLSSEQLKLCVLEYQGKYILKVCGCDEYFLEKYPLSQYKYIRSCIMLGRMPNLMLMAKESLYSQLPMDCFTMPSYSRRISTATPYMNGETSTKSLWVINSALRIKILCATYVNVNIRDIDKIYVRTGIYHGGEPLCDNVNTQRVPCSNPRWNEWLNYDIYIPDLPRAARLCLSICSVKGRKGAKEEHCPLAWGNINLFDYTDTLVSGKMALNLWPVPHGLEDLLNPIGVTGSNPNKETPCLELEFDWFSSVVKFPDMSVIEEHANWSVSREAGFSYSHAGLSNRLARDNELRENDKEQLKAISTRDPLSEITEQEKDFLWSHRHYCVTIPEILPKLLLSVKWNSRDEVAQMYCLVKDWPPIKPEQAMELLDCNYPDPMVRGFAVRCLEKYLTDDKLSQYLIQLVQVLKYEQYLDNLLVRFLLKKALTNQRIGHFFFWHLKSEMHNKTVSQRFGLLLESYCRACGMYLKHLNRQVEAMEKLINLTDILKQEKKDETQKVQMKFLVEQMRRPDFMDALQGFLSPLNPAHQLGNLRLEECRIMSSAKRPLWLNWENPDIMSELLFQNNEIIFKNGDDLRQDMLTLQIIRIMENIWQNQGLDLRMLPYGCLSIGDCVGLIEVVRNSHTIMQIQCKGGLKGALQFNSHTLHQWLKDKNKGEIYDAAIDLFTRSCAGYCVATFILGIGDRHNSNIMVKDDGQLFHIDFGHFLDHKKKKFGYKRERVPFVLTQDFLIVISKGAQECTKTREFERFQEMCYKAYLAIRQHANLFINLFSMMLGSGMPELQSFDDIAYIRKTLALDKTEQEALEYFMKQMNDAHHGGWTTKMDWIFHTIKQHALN
UniProt P42338: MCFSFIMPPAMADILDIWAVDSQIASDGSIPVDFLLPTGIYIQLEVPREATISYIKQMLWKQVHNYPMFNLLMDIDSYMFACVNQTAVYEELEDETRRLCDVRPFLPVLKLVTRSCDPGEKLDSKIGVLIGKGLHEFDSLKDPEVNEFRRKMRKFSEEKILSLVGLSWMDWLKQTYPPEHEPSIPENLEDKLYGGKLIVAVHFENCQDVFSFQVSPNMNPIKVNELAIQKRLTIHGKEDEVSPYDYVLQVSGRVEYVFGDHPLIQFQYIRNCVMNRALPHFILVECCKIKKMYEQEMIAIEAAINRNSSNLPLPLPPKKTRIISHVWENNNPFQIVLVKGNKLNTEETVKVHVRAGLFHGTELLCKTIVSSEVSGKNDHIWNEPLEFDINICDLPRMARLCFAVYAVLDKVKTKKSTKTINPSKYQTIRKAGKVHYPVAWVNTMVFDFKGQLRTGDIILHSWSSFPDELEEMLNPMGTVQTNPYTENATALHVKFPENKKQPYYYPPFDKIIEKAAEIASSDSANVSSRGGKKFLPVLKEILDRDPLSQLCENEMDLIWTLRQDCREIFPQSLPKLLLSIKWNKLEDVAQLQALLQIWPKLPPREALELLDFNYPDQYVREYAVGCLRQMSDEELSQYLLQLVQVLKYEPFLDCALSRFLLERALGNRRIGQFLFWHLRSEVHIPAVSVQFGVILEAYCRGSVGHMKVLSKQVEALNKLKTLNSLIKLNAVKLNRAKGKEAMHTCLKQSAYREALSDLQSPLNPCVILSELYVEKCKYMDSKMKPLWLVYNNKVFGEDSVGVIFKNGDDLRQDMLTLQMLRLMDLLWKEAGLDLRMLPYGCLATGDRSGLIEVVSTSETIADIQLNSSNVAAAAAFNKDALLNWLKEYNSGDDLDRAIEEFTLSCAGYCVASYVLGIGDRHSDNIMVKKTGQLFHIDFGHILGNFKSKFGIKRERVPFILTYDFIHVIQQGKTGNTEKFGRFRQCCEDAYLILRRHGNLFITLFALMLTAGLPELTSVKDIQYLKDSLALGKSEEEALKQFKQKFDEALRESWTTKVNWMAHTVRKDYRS

Key:
Assay in all cases: co-IP; endogenous proteins of murine and human myocardial tissue; immunoprecipitation of gelsolin, and reciprocally with antibodies against p110α or p110β, then immunoblotting; performed as described in refs 4, 57
[1] = target: gelsolin (human heart) (human (endogenous in human myocardial tissue)) (UniProt P06396)
[2] = target: p110α (murine heart) (mouse (endogenous in murine myocardial tissue)) (UniProt P42337)
[3] = target: p110β (murine heart) (mouse (endogenous in murine myocardial tissue)) (UniProt Q8BTI9)
[4] = target: gelsolin (murine heart) (mouse (endogenous in murine myocardial tissue)) (UniProt P13020)
[5] = target: p110α (human heart) (human (endogenous in human myocardial tissue)) (UniProt P42336)
[6] = target: p110β (human heart) (human (endogenous in human myocardial tissue)) (UniProt P42338)

p110β (human heart) (from UniProt P42338 1-1070) (enzyme)
binding [1]: no binding

gelsolin (murine heart) (from UniProt P13020)
binding [2]: binds
binding [3]: no binding

p110β (murine heart) (from UniProt Q8BTI9 1-1064) (enzyme)
binding [4]: no binding

p110α (murine heart) (from UniProt P42337 1-1068) (enzyme)
binding [4]: binds

gelsolin (human heart) (from UniProt P06396)
binding [5]: binds
binding [6]: no binding

No constants are given. Whether binding was seen depends on the method and setting. Binding seen in cells or lysates may run through a third protein. For some of these results: A result given as binding can be weak or reduced; the word gives no strength.
